# Values from PubChem BioAssay AID602196 (INSERM, 2012)
# Aim: 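Modifiers of cisplatin sensitivity in A549 cells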
# Cell system: human A549 lung cancer cells
# Knock-down reagent: siRNA pair against human genes
# Timing: 48 h transfection before cisplatin; time from cisplatin to read-out not stated
# Challenge: cisplatin at a dose killing half of control-siRNA cells; exact dose and duration not given
# Measured: 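Cisplatin cell death as a shift from the 50% death seen with control siRNA; siRNAs toxic or growth-blocking alone scored 0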
# Scale: two-siRNA summed score (-2 to +2): higher = both siRNAs protect from cisplatin killing; -2 means both sensitise; mean protection from cisplatin (shift in death) and protection from cisplatin (shift in death), siRNA C and protection from cisplatin (shift in death), siRNA D: higher = protection from cisplatin killing
# Active means: 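Each siRNA scores 0 if harmful alone by LDH or WST-1, otherwise +1 if it reduces and -1 if it increases cisplatin killing; a gene is active when both siRNAs agree (sum +2 or -2)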
# Calls: active = both siRNAs shift cisplatin killing the same way; inactive = no consistent shift, or siRNA harmful alone
# Shown is a random part of about 23,000 reagents. 455 of all reagents (2%) were called active. 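Active includes both protection and sensitisation; some change values fall well beyond the stated -50 to +50 range.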 Unmarked entries are inactive. No sequences are given here. Not stated in the record: the amount of reagent.
gene,two-siRNA summed score (-2 to +2),mean protection from cisplatin (shift in death) (%),"protection from cisplatin (shift in death), siRNA C (%)","protection from cisplatin (shift in death), siRNA D (%)"
BDKRB2,1,15.5,25.8,5.2
HSP90AA2P,0,13.1,11.6,14.6
NACC1,0,-1.9,-5.4,1.5
CYB5D2,0,39.2,43.6,34.9
FAM27E5,0,4.6,5.2,4.1
LMNB1,0,10.2,22.3,-1.9
LOC285047,1,12,6.3,17.8
LOC400638,0,5.5,3.6,7.3
AKIRIN1,0,5.7,11.2,0.1
NXT1,0,-0.6,-3.7,2.5
RPS6KA3,1,14.7,24,5.5
LOC392993,1,14.6,17.4,11.7
LOC148003,0,3.5,20.2,-13.2
LOC390733,1,9.2,14.4,4.1
CLN5,1,9,21,-3
SLC15A1,0,1,-4.7,6.8
SENP3,0,2.6,-0.6,5.8
SARS1,0,1.5,5.8,-2.8
MED28,0,2.1,0.6,3.6
DPF1,-2 (active),-14.9,-13.2,-16.6
GOLGA6L9,0,2.9,6.2,-0.3
COPS8,-1,-6.2,-0.6,-11.8
PRKAB2,0,5.6,4.7,6.5
FLJ13224,0,11,13.7,8.3
LOC439976,0,-5,2.7,-12.7
UBE4A,0,2.1,-2.8,6.9
SLC13A5,0,0.2,-7.8,8.3
LAYN,0,-5.7,3.7,-15
LOC402100,1,13.3,14.3,12.3
ANKS1A,0,6.8,14.7,-1.1
LOC133185,0,10.3,15.8,4.8
RPL23A,0,8.9,1.7,16.2
CACNG5,0,-9.3,-26.2,7.6
HTATSF1,0,-0.6,4.7,-5.9
TEFM,0,3.8,6.8,0.8
MC1R,-1,-7.5,-0.2,-14.9
DGAT2,0,11.4,-0.7,23.4

An excerpt from above, reduced to “mean protection from cisplatin (shift in death) (%)”.
PRKAB2: 5.6
FLJ13224: 11
LOC439976: -5
UBE4A: 2.1
SLC13A5: 0.2

Additional entries follow.
gene,two-siRNA summed score (-2 to +2),mean protection from cisplatin (shift in death) (%),"protection from cisplatin (shift in death), siRNA C (%)","protection from cisplatin (shift in death), siRNA D (%)"
LOC441574,0,0.9,-3.2,5.1
PTPDC1,0,-2.1,-5.5,1.4
ZC3H18-DT,1,14.1,13.9,14.2
OR9G1,1,13.7,12.4,14.9
MEGF9,1,18.5,26.6,10.3
ABLIM2,0,2.9,14.4,-8.5
DHX57,0,7.4,0.2,14.6
LOC390636,1,18.3,20.5,16.2
PHYHD1,1,15.6,20.3,10.9
POLR1G,0,-3.6,6.9,-14.1
MORC1,0,-10.7,-1.9,-19.4
STAT6,-1,-18.7,-35.9,-1.4
LOC440850,0,-2.7,5.5,-11
ZNF655,0,9.5,9.9,9.1
ABCF1,1,-7.6,9.8,-25.1
KIR2DL5A,0,18.4,25.4,11.5
ZNF649,0,0.2,0.5,0
GCFC2,-1,-4.9,4.9,-14.8
SORL1,0,-0.1,-26.4,26.2
CYFIP2,0,-3.7,0.8,-8.2
VGLL3,0,1.6,-2,5.3
C5orf24,1,2,12.6,-8.5
LOC399768,-1,-7.5,1,-16
TTYH1,0,2.5,3.6,1.3
ACTN1,0,-12.3,7.9,-32.6
LOC197049,1,10.5,2.1,18.9
LOC389183,0,10,7.9,12
NKG7,0,-1.8,-12.6,9
ARMH4,0,-6.7,-17.9,4.4
IL33R,0,-10.6,-3.2,-17.9
LOC442429,0,9.8,1,18.6
LOC388629,0,-0.4,-1.4,0.7
ZNF627,1,14.5,21.9,7.1
GLYR1,0,-3,-11.8,5.8
LOC400681,0,0.8,0.9,0.7
LOC440964,1,10.9,-3.2,25
